These are yes or no findings as the source states them, for the method shown. In cells and extracts the contact can be indirect. For part of these data: Binding calls can cover weak binding; strength is not graded here.
B1: PIWIL4 (protein, UniProt Q4G033 1-848)
chain: MSGRARVRARGITTGHSAREVERAPRDLMVTSVSPGDNEASSRTSVISQPHELGVSSGDGRRTLVEKRGNGRQDFVDLGVCTREKLTHVKDSKTGSSGIPVQLATNLFHLDLPQDWQLYQYHVTYSPDLASRRLRTALLYNHSILSDKAKAFDGTSLFLSEKLDHKVTELTSETQRGETVKITLTLTSELFPNSPMCIQFFNVIFRKIFKKLSMYQIGRNYYKPSEPVEIPQYKLSLWPGFAISVSRFESKLLVNADVNYKVLRNETVLEFMTDLCLRTDMSCFTETCHKQLVGLIVLTRYNNKTYRIDDIDWSVKPTHAFQKRDGSETTYVDYYKQQYDITLSDLNQPVLVSLLKRRRNDNSEPQMVHLIPELCFLTGLTSQATSDFRLMKAVAEETRLSPMGRQQQLARLADDIQRNQVTRFELETWGLHFGSQLSLTGRVVPSEKILLQDHTCQPAFAADWSKDMRSCKVLSSEPLNTWLIVCCSRAEHLIESFLSCLRRVGGSTGFSVGHPKIIKVDENPAAFLRAIQLHVNPDVQLVMCILPSNQKNYYDSIKRYLSSDCPVPSQCVLTRTLNKQGMMLSVATKIAMQMTCKLGGELWAVEIPLKSLMVVGIDICRDALSKDVAVVGFVASINSRITRWFSRCVLQRTAADIADCLKVCMTGALNKWYKHNHDLPARIIAYRDGVGNGQLKAVLEYEVPQLLSSVTECGSDARSCRLSVVVVRKRCLLRLFAESGHTLQNPPLGTVVDSEATRPEWYDFYLTSQTANRGTVSPTYYNVIYDDNALKPDHMQRLTFKLCHLYYNWQGVISVPAPCQYAHKLTFLVAQSIHKEPSLELANKLFYL
B2: TDRD9 (protein, UniProt Q3MHU3 1-1384)
chain: MLRKLTVDQINDWFTIGKTVTNVELLGLPPAFPAEAPREEVQRSEEVPSEAPTAQAQDPVKATALARPASAFGRSLSQRSSEVEYINKYRQLEAQELDIYGQDQPPSGPGLRSPLAKISNVACIPETTYKYPDLPINRCKEEVISLIESNSVVIIHGATGSGKSTQLPQYVLDHYTQRSAFCNIVVTQPRKIGASSIARWISKERSWTLGGLVGYQVGLEKTATEDTRLIYMTTGVLLQKIVSAKSLMEFTHVFIDEVHERTEEMDFLLLVVRKLLRTNSRFVKVILMSATINCKQFADYFAVPVQNKMNPAYVFEVEGKPHTIEQYYLNDLGHIYHSGLPPYRLEEPVITKDVYEVAVSLIQMFDDLDMKESGNKTWSGAQFVSERSSVLVFLPGLGEINYMHELLTNMIHKRLQVYPLHSSVTLEEQNNVFLSPVPGYRKIILSTNIAESSVTVPDVKYVIDFCLTRTLVCDEDTNYQSLRLSWASKTSCDQRKGRAGRVSKGYCYRLIHRDFWDSAIPDHVVPEMLRCPLGSTVLKVKLLDMGEPRALLATALSPPSLSDIERTILLLKEVGALAVSGQREDENPHDGELTFLGRVLAQLPVSQQLGKLIVLGHVFGCLDECLIIAAALSLKNFFTMPFRQHLDGYRNKVHFSGSSRSDCLALVEAFRAWQACRQRGELRHPKDELDWGRLNYIQIKRIREVAELYEELKNRISQFNMFVDPRHPVLDQEYPYKQRFILQVVLAGAFYPNYFTFGQPDEEMAVRELAGRDPKTTVVLKHIPPYGFLYYKQLQSLFRQCGQVKSIVFDGAKAFVEFSRNPTERFKTLPAVNLAVKMSQLKVSLELSIHAAEEIEGKVQGGSVSKLRNTRVNVDFQKQTVDPMQVSFNTLDRPRTVADLLLTVDVTEVVEVGHFWGYRIDERNAELLRQLTAEINRLELVPLPIHPHPDLVCLAPFTDYNKESYFRAQILYVSGNSAEVFFVDYGNRSHVDLDLLREIPCQLLELPFQALEFKICKMRPSAKSLICGEHWSGGANGRFAALVSGCPLLVKVFSIVHSVLHVDVYRYSGAQDAVNIRDVLIREGYAELAEESYESKQSYEVLKGFFAKSVDTMPDGSVSSPMKDDEKHLIQILLESFASNRLGAPNCKAVLHGPFNPYELKCHSLTRISKFRCVWIEKESINSVVISDSPADLHQRMLVAASLSVNETGSTMLLRETSLMPHIPGLPALLSMLFAPVMELRVDREGKCYTGVLCGLGWNSTTEAPILPEHDIELAFDVCFNVEDIVEINILRAAINKLACDGPHGPKYLGPERIAQLQENARQKLLGLFCRLKPREKITPQWHEKPYEWNQVDPRLVIEQAEREGGPGKSTCLYQLHTPVVLSP

What was measured:
[1] = molecular target: T1, TDRD9 (rat (endogenous in 19dpc embryo testes)) (UniProt Q3MHU3); test: co-IP; Pierce Co-Immunoprecipitation Kit; extract of 30 testes of 19dpc rat embryos incubated overnight at 4°C in spin columns baited with anti-DAZL or anti-TDRD9 antibody; elution product analysed by Western blot; bait not eluted from the column; n = 3
T1 sequence: B2 chain

[2] = molecular target: DAZL (rat (endogenous in 19dpc embryo testes)); test: as above

Molecule	binding [1]	binding [2]
MAEL (rat (endogenous in 19dpc embryo testes))	no binding	
B1		binds
B2		no binding

From publication PMC6557511
